The text below walks through data of paper PMC13100048.

Amino acid sequences for entries named in this document (tags omitted). A change or cut given only in a name is not applied to a line headed by its entry.
UniProt Q54HY5: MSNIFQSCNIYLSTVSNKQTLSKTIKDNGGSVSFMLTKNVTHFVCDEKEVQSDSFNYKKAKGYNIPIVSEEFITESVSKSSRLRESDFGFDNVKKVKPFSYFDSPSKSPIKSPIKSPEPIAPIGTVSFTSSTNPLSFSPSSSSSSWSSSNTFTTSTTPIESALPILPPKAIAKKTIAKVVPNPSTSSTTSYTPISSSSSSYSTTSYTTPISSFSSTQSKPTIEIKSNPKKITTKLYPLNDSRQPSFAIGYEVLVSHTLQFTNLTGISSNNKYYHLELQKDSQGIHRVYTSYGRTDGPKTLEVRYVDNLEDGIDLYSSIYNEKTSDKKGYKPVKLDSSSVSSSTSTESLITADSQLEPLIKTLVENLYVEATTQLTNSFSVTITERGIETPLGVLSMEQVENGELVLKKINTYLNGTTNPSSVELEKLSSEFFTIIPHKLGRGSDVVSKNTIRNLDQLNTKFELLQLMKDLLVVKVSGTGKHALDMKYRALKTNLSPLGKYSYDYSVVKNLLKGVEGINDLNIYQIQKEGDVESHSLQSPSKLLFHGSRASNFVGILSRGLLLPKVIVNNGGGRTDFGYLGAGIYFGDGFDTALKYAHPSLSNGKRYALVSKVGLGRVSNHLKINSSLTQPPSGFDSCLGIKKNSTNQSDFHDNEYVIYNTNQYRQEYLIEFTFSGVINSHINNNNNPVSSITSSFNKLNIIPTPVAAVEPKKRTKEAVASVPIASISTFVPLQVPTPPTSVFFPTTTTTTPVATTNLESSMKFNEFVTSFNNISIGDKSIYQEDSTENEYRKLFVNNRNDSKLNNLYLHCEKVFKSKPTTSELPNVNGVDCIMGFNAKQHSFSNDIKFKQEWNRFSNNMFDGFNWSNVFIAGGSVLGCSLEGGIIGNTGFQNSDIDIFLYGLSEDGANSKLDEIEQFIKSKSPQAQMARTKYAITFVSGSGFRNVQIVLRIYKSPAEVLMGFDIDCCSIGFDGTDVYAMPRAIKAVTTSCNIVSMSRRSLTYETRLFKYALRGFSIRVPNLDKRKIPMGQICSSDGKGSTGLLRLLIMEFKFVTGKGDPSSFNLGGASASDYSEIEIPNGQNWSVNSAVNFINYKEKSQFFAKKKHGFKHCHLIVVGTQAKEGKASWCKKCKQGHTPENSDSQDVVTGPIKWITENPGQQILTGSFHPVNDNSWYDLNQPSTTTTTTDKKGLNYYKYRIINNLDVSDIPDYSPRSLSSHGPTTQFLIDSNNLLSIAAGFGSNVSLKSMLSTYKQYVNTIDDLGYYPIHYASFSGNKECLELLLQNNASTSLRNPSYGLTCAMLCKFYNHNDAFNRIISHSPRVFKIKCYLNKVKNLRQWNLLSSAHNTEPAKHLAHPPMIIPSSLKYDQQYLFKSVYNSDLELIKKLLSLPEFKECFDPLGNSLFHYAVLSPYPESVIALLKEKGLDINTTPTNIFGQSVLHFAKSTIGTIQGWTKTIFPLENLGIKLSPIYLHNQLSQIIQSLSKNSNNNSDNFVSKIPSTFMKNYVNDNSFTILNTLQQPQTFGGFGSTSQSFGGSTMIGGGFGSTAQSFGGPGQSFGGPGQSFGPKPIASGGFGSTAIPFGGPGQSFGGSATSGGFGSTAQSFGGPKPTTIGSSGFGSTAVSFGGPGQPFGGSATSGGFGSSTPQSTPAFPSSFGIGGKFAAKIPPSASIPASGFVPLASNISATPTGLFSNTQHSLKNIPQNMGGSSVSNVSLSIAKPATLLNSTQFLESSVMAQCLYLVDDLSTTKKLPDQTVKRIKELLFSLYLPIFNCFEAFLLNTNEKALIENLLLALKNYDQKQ
UniProt Q54CB5: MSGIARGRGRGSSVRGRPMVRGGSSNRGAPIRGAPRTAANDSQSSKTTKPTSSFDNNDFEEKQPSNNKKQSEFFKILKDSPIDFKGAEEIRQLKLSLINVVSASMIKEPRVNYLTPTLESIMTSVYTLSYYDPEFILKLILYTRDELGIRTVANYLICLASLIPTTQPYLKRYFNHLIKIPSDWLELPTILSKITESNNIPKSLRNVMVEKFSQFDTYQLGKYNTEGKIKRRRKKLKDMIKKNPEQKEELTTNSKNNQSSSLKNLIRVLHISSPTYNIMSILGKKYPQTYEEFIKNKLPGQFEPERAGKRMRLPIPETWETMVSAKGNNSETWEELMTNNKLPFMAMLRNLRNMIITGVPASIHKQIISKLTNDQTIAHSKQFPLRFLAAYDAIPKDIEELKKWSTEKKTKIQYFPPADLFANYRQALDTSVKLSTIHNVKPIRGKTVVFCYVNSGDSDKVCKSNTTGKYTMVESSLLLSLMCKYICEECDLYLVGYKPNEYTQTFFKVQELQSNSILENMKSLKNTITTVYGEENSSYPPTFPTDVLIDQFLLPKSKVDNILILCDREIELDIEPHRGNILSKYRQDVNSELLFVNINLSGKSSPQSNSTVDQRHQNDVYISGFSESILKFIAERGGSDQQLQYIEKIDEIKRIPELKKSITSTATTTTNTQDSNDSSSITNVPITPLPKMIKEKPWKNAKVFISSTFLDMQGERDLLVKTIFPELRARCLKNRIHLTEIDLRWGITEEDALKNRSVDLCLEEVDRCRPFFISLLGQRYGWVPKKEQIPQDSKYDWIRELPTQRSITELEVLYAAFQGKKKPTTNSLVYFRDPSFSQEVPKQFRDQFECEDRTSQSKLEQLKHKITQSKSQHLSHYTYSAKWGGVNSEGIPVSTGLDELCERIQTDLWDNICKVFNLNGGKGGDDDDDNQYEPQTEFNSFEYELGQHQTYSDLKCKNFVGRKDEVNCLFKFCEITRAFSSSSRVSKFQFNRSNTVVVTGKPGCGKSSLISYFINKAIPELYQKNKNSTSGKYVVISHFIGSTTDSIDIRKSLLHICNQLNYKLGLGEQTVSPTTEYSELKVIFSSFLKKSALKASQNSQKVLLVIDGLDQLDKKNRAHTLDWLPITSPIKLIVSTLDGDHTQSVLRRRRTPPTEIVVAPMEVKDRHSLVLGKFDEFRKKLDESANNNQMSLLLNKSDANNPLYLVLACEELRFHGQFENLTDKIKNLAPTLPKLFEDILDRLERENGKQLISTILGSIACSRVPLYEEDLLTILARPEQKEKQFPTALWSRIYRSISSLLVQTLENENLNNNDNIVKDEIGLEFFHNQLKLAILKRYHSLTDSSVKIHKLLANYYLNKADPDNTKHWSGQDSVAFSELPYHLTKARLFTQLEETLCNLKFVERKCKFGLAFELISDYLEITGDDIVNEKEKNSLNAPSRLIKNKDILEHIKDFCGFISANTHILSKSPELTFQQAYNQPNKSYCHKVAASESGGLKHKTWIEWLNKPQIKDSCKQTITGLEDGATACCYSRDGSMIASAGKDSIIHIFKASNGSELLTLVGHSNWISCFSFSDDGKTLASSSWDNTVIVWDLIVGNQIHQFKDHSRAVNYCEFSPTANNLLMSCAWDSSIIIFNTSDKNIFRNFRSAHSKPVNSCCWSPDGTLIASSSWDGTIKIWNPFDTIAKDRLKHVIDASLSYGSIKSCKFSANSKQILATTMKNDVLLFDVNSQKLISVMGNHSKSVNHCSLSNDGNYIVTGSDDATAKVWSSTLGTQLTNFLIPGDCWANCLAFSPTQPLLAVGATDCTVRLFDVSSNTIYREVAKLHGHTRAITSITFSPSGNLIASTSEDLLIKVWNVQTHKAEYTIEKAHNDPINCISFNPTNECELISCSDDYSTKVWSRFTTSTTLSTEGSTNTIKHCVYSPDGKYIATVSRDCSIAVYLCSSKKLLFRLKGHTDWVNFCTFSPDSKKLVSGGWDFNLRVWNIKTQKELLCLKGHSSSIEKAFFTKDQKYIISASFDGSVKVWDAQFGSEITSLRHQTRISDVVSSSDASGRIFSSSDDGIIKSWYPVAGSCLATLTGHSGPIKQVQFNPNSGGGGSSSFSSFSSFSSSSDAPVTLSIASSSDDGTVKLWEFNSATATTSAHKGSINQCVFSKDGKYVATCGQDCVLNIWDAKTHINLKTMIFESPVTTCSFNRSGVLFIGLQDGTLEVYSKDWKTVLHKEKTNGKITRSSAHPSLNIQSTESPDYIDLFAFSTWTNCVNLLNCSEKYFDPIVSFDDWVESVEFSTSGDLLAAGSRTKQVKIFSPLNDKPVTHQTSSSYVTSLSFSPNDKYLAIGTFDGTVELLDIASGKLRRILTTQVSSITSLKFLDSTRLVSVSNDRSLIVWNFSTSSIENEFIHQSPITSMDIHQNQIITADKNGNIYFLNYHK

Results are given in words; binding and its absence hold for the method and conditions named. Binding seen in cells or lysates may run through a third protein. These calls come from enrichment with a bait or labelling near it, and not all partners need be listed. Sequences can lack the tags named with a protein.

First the molecules themselves.
T1: MVPA-TurboID fusion protein (D. discoideum Major Vault Protein A fused to the TurboID biotin ligase) (Dictyostelium discoideum) (UniProt P34118)
T1 sequence: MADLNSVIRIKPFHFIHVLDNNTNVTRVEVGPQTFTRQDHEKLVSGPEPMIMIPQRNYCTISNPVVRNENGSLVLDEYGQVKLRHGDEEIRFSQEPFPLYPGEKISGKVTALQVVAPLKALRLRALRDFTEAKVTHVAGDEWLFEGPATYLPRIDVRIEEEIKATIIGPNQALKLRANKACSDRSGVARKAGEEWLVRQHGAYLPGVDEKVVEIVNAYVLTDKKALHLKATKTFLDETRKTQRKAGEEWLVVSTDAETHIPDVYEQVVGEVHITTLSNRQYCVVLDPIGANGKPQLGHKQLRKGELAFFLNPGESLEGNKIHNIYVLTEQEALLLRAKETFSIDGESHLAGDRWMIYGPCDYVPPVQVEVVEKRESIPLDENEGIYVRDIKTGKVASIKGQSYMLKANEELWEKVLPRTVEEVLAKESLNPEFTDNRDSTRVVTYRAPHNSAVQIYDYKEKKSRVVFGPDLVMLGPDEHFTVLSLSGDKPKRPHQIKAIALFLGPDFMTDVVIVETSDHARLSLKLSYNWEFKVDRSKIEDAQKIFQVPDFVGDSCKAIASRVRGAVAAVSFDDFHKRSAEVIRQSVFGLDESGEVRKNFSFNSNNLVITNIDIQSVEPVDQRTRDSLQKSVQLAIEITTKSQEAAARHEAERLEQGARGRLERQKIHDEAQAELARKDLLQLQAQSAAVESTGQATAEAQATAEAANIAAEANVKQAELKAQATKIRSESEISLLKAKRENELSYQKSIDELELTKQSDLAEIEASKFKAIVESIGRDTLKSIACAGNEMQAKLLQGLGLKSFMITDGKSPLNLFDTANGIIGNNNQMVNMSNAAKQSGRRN

B1: poly(ADP-ribose)polymerase Q55GU8 (protein, UniProt Q55GU8 1-644)
chain: MEKHQNQVIEENRSKPLINLTFFIDSKSKFKVSNYTLSKLIKDEFGGSIAFTLNPKVDYVITTSANFFSTKTTTFLSNQDLSKIKLINEDYFISQQKLEPTQRSKINDSYSIGNKQDSQVVNVCKKENDVVEKADDDLLKIIINPKHIPSVCYGANELKQPYFPEEYLILKSNLLSSTIIGKQNTNKFFYLELHQAIDNNLKKFYRIFTQFGRTDEIQKSNSQHRYVSNDLKEAMALYSSIYSQKIESDNGYIEVKMNSITKIGSKLKLAQLKQQKENDVNANTHIKVYNEETGEEETGQQSLFQRSYIETNVSKLMDIIYKEASKCLIKNFSVEVTENGIETQLGALSMAQIEEAKSILNEINNVLNKDGIDNQENLEMLSSRFYQLVPSKISTKKNRDSSKSVINSFESLNQLSELMNMMKDLTNSFNSNKTTSESKNHLDMKYYALNTHIEHLHQASAGYQIFIRNFLSNPHHQKAIDNGEIKILNCYRLDKKLESDNFLDVGNVQYLYHGSKPQNLVGLLSRGILPPDYVKQIGGKRTDFGYLGSGIYFSDDVVSSTYTSPIGEKGSRFIIMSSVSLGKVKEFSKIQPSLQCAPSGHHSCKGLKSTPTNPTDFKNNEYVVFNPNQSKLSFLIEYIENYKK
B2: poly(ADP-ribose)polymerase Q8I7C6 (protein, UniProt Q8I7C6 1-700)
chain: MPPKKRQLSQSDEDVKTTTTTTTSTSTKPLTEIFDGIVFCFSGTFSVTQTELTKKVEGCGASTSKTCTAKVTHLVSTVDDFKKNGTAVSKALKSGIPIVTEGFITKSIEASKKLEEKDYSLSSSNDDEEEEEEEEEEEEEEEEEEVAKPTRRSSKKAPAKSEEKGEDKNKLTTRPTKKTKTNTSEAETKTAASDLDDSSSESEDEKNQISVKIKGRAANDPHFPDSRFHVYENGKDVYDATLNQTEISQNNNKFYIIQLLEADDGSSYSVWNRWGREGLKGQSSRKDFGKGGLNQAISLFCSKFYEKTKNTFTDRANFKKVAGKYDMIELDYSTDSKPKNGASTTATTTTTKKVVEHKKECSLDERVQELVKLIFDVKMMERTMTEAKYDLKKMPLGKLSKNQITKGYLVLKQIEDVMGGKSGESLSTLSSRFYTIIPHAFGMSVPPVINTNQMLIEKMNMLQNLADIEIATNIIKDSESDESNILELHYAKLKTDIQPLDENSCEYKNILLYVKNTYQGGKKPTIVNIFKIDRDGEADRYKTKKHLGNRKLLWHGSRLTNYASIISQGLRIAPPEAPVSGYRFGKGVYFADCMSLSANYCRTVGSNDFCMLLGDVALGKTADLARDTYMEKPQPNSHSTWALGTVEPDPKVFFQDTEGCITPYGQMIPSQHKGVSCYEHQYVVYDVAQVHLKYLLQLRN
B3: Major Vault Protein B (protein, UniProt P54659 1-846)
chain: MATPVQASTVIRVKPHHYIHVLDNNTNVTRVEVGPQTFTRQDHERVLNPTPLPMILIPPRQYCIIENPIIRDKEGKLVVDKFNQPKLRHGDQEIRFSQDPFPLYPGEVVIAQPVPLQVIQTNSALRLKCLRDFVEVKADKTTVSHIAGDEWLFEGPGTYYPRVEVQVVEPVRAVIIKENQALKLRARLSFVDRRDVVRQVGEEWLVRESGAYLPGVSEEIVGFIQALVLTDRIAYQLLATRSFTDSFGKVRKAGEEWIITQKDCDTYIPDVNEKVIRDIKAITLTNRQYCIVENPIDPKTGKNKLGHKELLQGDRTFFLMPGESLVKGIQNVNVLSEDEALLLSAKEEFVEKKGTTTIVHKPGDLWMIYGPCDYIPPIQVDVVERRKRIPLDVNEGIYVRDIKTGKVRSVHGSSYMLLPNEERWAKPLAPIVEELLKKSASRDQNEEHNESDRDSTKVITYRVPHNAAVQIFDYRKKEARVVFGPELVMLEPDEEFTVLSLSGKIPKRPNHIRSLALFLGPDFMTDLITVETADHARLSLKLSYNWHFKVEQDNPSKLFATSDFTGDLCKATGSLVRAAVAASTFDNFHKHSSDIIQQAVFGSTDGSSNDCLYFETNGLVITNIDVQSVEPVDQRTLDSLQKSVQLAIEITTKSQEATARQEAERLEQMARGELERQKIIDEAKNEESRSKLVQLQAQSAAVESTGQAVAEARARAEAAIIEAESEIKQARLSTRAIEIEALSEIENLKAKHIVEIQHIKSLNNLELIKAKESATIETTKFENYVEALGSDTIKSIAQAPEETKAKLLAGLGLKSFMITDGKSPLNLFDTANGLIADAQRSEVDEE

For the first test, the target named is T1, MVPA-TurboID fusion protein (D. discoideum Major Vault Protein A fused to the TurboID biotin ligase) (Dictyostelium discoideum). As to the kind of experiment: proximity labelling; TurboID fused to the C-terminus of MVPA, expressed in D. discoideum; biotinylation 15 minutes with 50 µM biotin; RIPA lysis; biotinylated proteins isolated on MagStrep StrepTactin magnetic beads; LC-MS/MS (bulk and biotinylated peptides), differential abundance against a strain expressing TurboID alone (q < 0.01).
Consider “poly(ADP-ribose)polymerase Q54HY5 (from UniProt Q54HY5 1-1803)”, for which the binding entry is listed as “binds”.
The same measure, in the same setting: the value for “TEP1 (Q54CB5), likely Dictyostelium orthologue of Telomerase-associated protein 1 (from UniProt Q54CB5)” was “binds”; that for “poly(ADP-ribose)polymerase Q54LJ4 (from UniProt Q54LJ4 1-2563)” was “binds”.

The target is the same in another test. The test is described as above. The source holds these as a separate data set.
Turning to B1, the binding result was “binds”.
With B2, the binding entry was “binds”.
On to B3, for which the binding result was “binds”.
